# Source: PubChem BioAssay AID540276 (National Center for Advancing Translational Sciences (NCATS), 2011)
# In all, about 300,000 compounds went through this assay and about 5,400 (1.8%) were called active. The shares of active, inactive and inconclusive entries below differ from those in the screen. Calls follow the shape of the full dose curve; tested in HEK293 cells. Where the call is inconclusive, the potency comes from a doubtful curve fit.
# Experiment: qHTS for inhibitors of binding or entry into cells for Marburg Virus
# Conditions: Marburg virus pseudotyped entry inhibition, cell reporter; series mostly up to 37.8 µM
# Potency is read from the fitted curve at half-maximal effect.
row,Structure (SMILES),Potency
1,O=C(NC1CCCC1)c1cccc(S(=O)(=O)N2CCCCC2)c1,"inconclusive: 15.8 µM [inhibitor, single point]"
2,Cc1ccccc1NCC(=O)N/N=C/c1c(C)c(C(=O)c2ccc(Cl)cc2)n2ccccc12,"inconclusive: 28.2 µM [inhibitor, single point]"
3,CC12CCC(=O)N1C(C(=O)Nc1nnc(SCc3ccccc3)s1)CS2 (stereo not drawn),"inconclusive: 3.16 µM [inhibitor, single point]"
4,CC(C)(C)NC(=O)COC(=O)c1ccc(F)cc1Cl,"inconclusive: 28.2 µM [activator, single point]"
5,CCOC(=O)C(=O)N/N=C(/c1ccccc1)c1ccc(OC)cc1,inactive
6,Cc1nc2nc(-c3ccco3)[nH]n2c(=O)c1Cc1ccccc1,"inconclusive: 35.5 µM [activator, partial curve, poor fit]"
7,CC(O)CNCCOc1ccccc1OCc1ccccc1 (stereo not drawn),"inconclusive: 35.5 µM [inhibitor, single point]"
8,Nc1ccccc1-c1nnc(-c2ccc(-c3ccccc3)cc2)o1,"inconclusive: 0.103 µM [activator, partial curve, poor fit]"
9,c1ccc(-c2n[nH]c(-c3ccccn3)n2)cc1,"inconclusive: 2 µM [activator, partial curve, poor fit]"
10,NC(=O)NN=C1C2CCCC1C(c1ccccc1)NC2c1ccccc1 (stereo not drawn),inactive
11,Cc1nc(C(=O)N(C)C)nn1-c1ccc([N+](=O)[O-])cc1,inactive
12,CCN1CCN(S(=O)(=O)c2ccc(C(=O)Nc3sc4c(c3C(N)=O)CCN(CC)C4)cc2)CC1,active: 8.91 µM
13,O=C1C2C(c3ccccc3)=NN(c3ccccc3)C2C(=O)N1c1ccccc1 (stereo not drawn),"inconclusive: 1.16 µM [activator, partial curve, poor fit]"
14,COc1ccc(-c2c(O)c(C#N)c(-c3ccccc3)n(-c3ccc(OC)cc3)c2=O)cc1,"inconclusive: 1.26 µM [inhibitor, partial curve, poor fit]"
15,Cc1ccc(NC(=O)c2c(C)nc3sc(C(=O)Nc4ccc(F)cc4)c(N)c3c2-c2ccc(C)o2)c(C)c1,"inconclusive: 1.26 µM [inhibitor, partial curve, poor fit]"
16,O=C(N/N=C/c1ccc(-n2ccnc2)cc1)c1cccs1,"inconclusive: 10 µM [activator, single point]"
17,CC(C)CC1NC(=O)N(CC(=O)NC2CCCCC2)C1=O (stereo not drawn),inactive
18,O=C(NCc1cccnc1)NC1(C(F)(F)F)Oc2ccccc2O1,"inconclusive: 13 µM [inhibitor, partial curve, poor fit]"
19,COc1ccc(/C=C/C(=O)c2c(C)nc3ccccn23)cc1,inactive
20,CCCCCCNc1cc2n(c(=O)n1)CCc1cc(OC)c(OC)cc1-2,inactive
21,COCCNC(=S)N/N=C(\C)c1ccc2cc(OC)ccc2c1,"inconclusive: 0.794 µM [inhibitor, full curve, poor fit]"
22,Cn1c(CN2CCCC2)nc2cc(NS(=O)(=O)c3ccccc3)ccc21,"inconclusive: 29.1 µM [inhibitor, single point]"

# Rewritten as tab-separated lines: entries from further up.
row	Structure (SMILES)	Potency
13	O=C1C2C(c3ccccc3)=NN(c3ccccc3)C2C(=O)N1c1ccccc1 (stereo not drawn)	inconclusive: 1.16 µM [activator, partial curve, poor fit]
14	COc1ccc(-c2c(O)c(C#N)c(-c3ccccc3)n(-c3ccc(OC)cc3)c2=O)cc1	inconclusive: 1.26 µM [inhibitor, partial curve, poor fit]
15	Cc1ccc(NC(=O)c2c(C)nc3sc(C(=O)Nc4ccc(F)cc4)c(N)c3c2-c2ccc(C)o2)c(C)c1	inconclusive: 1.26 µM [inhibitor, partial curve, poor fit]

# (more compounds)

row,Structure (SMILES),Potency
1,C/C(CC(=O)Nc1ccc2c(c1)OCCO2)=N\NC(=O)c1ccc([N+](=O)[O-])cc1Cl,inactive
2,COc1ccc(C2c3c(n[nH]c3C)CC(C)(O)C2C(C)=O)cc1OC (stereo not drawn),"inconclusive: 29.1 µM [activator, single point]"
3,COc1ccc(OC)c(S(=O)(=O)NCCCN2CCCC2=O)c1,inactive
4,COc1ccc(N2CC(C(=O)N[C@@H](C)C(=O)N3CCCCC3)CC2=O)cc1 (stereo partly drawn),inactive
5,O=C(NN(c1ccccc1)c1ccccc1)c1ccccc1F,inactive
6,CC(C)c1ccc2[nH]c(O)c(N=NC(=O)c3cccc(S(=O)(=O)Nc4ccccc4Cl)c3)c2c1,"inconclusive: 1 µM [inhibitor, partial curve, poor fit]"
7,CCOC(=O)C1CCN(C(=S)Nc2ccc(Cl)cc2C)CC1,"inconclusive: 8.91 µM [inhibitor, partial curve, poor fit]"
8,CN1CCCN(C(=O)c2cc(-c3cccc4ccccc34)nc3ccccc23)CC1,"inconclusive: 29.1 µM [inhibitor, single point]"
9,C/C=C(/CCC1NCCc2c1[nH]c1ccccc21)[Si](C)(C)C (stereo not drawn),"inconclusive: 12.6 µM [inhibitor, partial curve, poor fit]"
10,CCOC(=O)c1cc(-c2cccs2)nc2c1c(C)nn2-c1ccccn1,"inconclusive: 0.562 µM [inhibitor, full curve, poor fit]"
11,CC1(C)CC(=O)c2cc(C(=O)NCc3ccco3)c(=O)n(-c3ccc(Cl)cc3)c2C1,inactive
12,Cc1ccc2nc(/C(C#N)=C\c3cc(C)n(-c4cccc([N+](=O)[O-])c4)c3C)[nH]c2c1,"inconclusive: 9.2 µM [inhibitor, partial curve, poor fit]"
13,CC1CCC(C(C)C)C(OC(=O)C2=C3c4ccccc4S(=O)(=O)N3CC2)C1 (stereo not drawn),"inconclusive: 3.55 µM [inhibitor, partial curve, poor fit]"
14,Cc1cc(C(=O)N/N=C2\CC(=O)CC(C)(C)C2)c(C)n1-c1ccccc1,active: 2.91 µM
15,COC(=O)c1ccc(NC(=O)CSc2nc3ccc(N4C(=O)C5C6C=CC(C6)C5C4=O)cc3s2)cc1 (stereo not drawn),"inconclusive: 6.51 µM [inhibitor, partial curve, poor fit]"
16,Cc1ccc(C(=O)c2no[n+]([O-])c2C(=O)c2ccc(C)cc2)cc1,inactive
17,Oc1ccc(Br)cc1CNc1cccc2cccnc12,"inconclusive: 35.5 µM [inhibitor, single point]"
18,COc1cc(CNCc2ccccn2)ccc1OCc1ccc(Cl)cc1Cl,"inconclusive: 35.5 µM [inhibitor, single point]"
19,Cc1cc(C)n2c(Nc3ccc(C(C)C)cc3)c(-c3ccsc3)nc2n1,"inconclusive: 6.31 µM [inhibitor, single point]"
20,O=C(c1ccc(OC2CCN(Cc3ccccn3)CC2)cc1)N1CCC[C@H]1CO,inactive
21,Cn1c(=O)n(C)c2cc(/C=C(/C#N)C(=O)NCc3ccco3)ccc21,"inconclusive: 5.62 µM [inhibitor, single point]"
